Reference: PubChem BioAssay AID624246 (National Center for Advancing Translational Sciences (NCATS), 2012)
Among all 370,000 compounds or so, about 100 (0.027%) were called active. The inconclusive results got no clear call from the source; some entries with a clear call stand among them for comparison. Calls follow the shape of the dose curve; as a rule, active = well fitted inhibition curve with a large enough effect in the polarisation, with a control signal flat; inconclusive = small, poorly fitted or top-dose-only effect, or effect the other way, or a change in a side signal; inactive = no such curve, though single readings can be large or run the other way; the % refers to the polarisation. Where the call is inconclusive, the potency comes from a doubtful curve fit. A note “side channel” means that the fit belongs to a control or component signal, not to the main read-out.

Chains of the proteins cited; added tags and fusions are not shown. Lines headed by an entry give the natural chain unless they say otherwise; changes in a name come on top.
UniProt P11308: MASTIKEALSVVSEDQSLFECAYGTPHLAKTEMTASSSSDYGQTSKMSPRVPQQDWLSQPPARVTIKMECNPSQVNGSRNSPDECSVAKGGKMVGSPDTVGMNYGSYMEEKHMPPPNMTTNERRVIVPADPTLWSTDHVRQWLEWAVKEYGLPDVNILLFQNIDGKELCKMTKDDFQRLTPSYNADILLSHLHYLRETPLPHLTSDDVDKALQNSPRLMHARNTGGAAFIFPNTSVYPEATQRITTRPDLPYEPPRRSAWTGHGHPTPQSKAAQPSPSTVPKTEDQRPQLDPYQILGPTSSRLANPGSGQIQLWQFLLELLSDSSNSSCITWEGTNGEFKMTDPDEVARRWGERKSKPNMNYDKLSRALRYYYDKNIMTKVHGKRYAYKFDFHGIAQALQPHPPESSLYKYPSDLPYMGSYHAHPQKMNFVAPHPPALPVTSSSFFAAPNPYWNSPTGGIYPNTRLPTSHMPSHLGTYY

Target: Transcriptional regulator ERG (Homo sapiens) (UniProt P11308)
Assay: qHTS for Small Molecule Inhibitors of the ERG Ets/DNA interaction; as to FP activity, negative = inhibition: % of control where 0% means no effect
Details: fluorescence polarization, His-ERG Ets domain / labelled DNA; FP activity, negative = inhibition: at 76.9 µM (top of the series)
Procedure, shortened: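 His-tagged ERG Ets domain (1 uM in the protein solution; 300mM KCl, 50mM Tris-HCl, 1mM EDTA, 1mM DTT, pH 7.5) received compound, then a probe mix of 5 nM fluorescein-DNA and 100nM Texas-615-DNA. Fluorescence polarization was read for both dyes.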
Potency is read from the fitted curve at half-maximal effect.

Compound | Potency | FP activity, negative = inhibition
CCOC(=O)C1=C(CN2CCCCC2)NC(=O)NC1c1cc(C)ccc1C (centres undefined) | inconclusive: 35.5 µM [inhibitor, partial curve, poor fit] | 
COc1ccccc1CN1CC(C(=O)NCc2ncccc2C)CCC1=O (centres undefined) | inconclusive: 7.94 µM [inhibitor, partial curve, poor fit] | 
CCC(C)NC(=O)Cn1cc(S(=O)(=O)N2CCCC2)c(S(=O)(=O)N2CCCC2)c1 (centres undefined) | inconclusive: 50.1 µM [inhibitor, single point] | 
Cc1ccccc1Oc1nc2c(C)cccn2c(=O)c1/C=C(\C#N)C(=O)NC1CCS(=O)(=O)C1 (centres undefined) |  | inactive: 6.89%
Cc1ccc2nc3c(nc2c1C)CCCC3 |  | inactive: 9.47%
COc1ccc(OC)c(NC(=O)c2ccc(CN3CCc4ccccc4C3)cc2)c1 | inconclusive: 11.2 µM [inhibitor, single point] | 
CC(C)C(NC(=O)CCNC(=O)c1ccc(C(C)(C)C)cc1)c1nc2ccccc2[nH]1 (centres undefined) | inconclusive: 11.2 µM [inhibitor, single point] | 
CCOC(=O)N1CCC(NC(=O)c2sc3nc4n(c(=O)c3c2C)CCCC4)CC1 | inconclusive: 100 µM [inhibitor, single point] | 
CCCCn1cc(S(=O)(=O)c2ccc(C)cc2)c(=O)c2cc(F)c(N3CCCCC3)cc21 | inconclusive: 11.2 µM [quencher, side channel, single point] | 
COc1ccccc1-c1nc2n(n1)C(c1ccccc1Cl)C(C(=O)Nc1cccnc1)=C(C)N2 (centres undefined) |  | inactive: -5.01%
CCOC(=O)c1cnc2cc(C(F)(F)F)ccc2c1Nc1cc(C)ccc1OC | inconclusive: 8.91 µM [quencher, side channel, partial curve, poor fit] | 
COc1ncnc2c1NC1=C(S2)C(=NCCC(=O)O)CC(C)(C)C1 | inconclusive: 79.4 µM [inhibitor, single point] | 
CCCC(C(=O)NC1CCCC1)N(C(=O)c1snc(C(N)=O)c1N)c1ccc(F)cc1 (centres undefined) | inconclusive: 2 µM [inhibitor, partial curve, poor fit] | 
O=C1NCCCN1Cc1ccc(F)cc1Cl | inconclusive: 5.62 µM [inhibitor, partial curve, poor fit] | 
Cc1cc(C)n(C(=O)c2cccc(S(=O)(=O)N3CCOCC3)c2)n1 |  | inactive: -4.24%
CCCOc1ccc(/C=N/Nc2cc(N3CCOCC3)ncn2)c(O)c1 |  | inactive: -5.37%
COc1ccc(CNC(=O)/C=C/c2ccc(OCCCF)cc2)cc1 |  | inactive: 1.94%
N#Cc1c(SCC(=O)Nc2nccs2)sc2c(O)cc(=O)[nH]c12 |  | inactive: 24%
CN1/C(=C\C(=O)c2cccs2)C(C)(C)c2ccccc21 | inconclusive: 17.8 µM [inhibitor, partial curve, poor fit] | 
COc1ccccc1N1C(=NC(=O)C(C)Oc2ccccc2)SC2CS(=O)(=O)CC21 (centres undefined) |  | inactive: 9.07%
COC(=O)c1cc(NC(=O)c2ccccc2)c(=O)oc1/C=C/Nc1ccc(Oc2ccccc2)cc1 | inconclusive: 11.2 µM [inhibitor, single point] | 
CCOC(=O)c1ccc(NC(=O)COc2coc(CN3CCc4ccccc43)cc2=O)cc1 | inconclusive: 25.1 µM [inhibitor, partial curve] | 

Compound | Potency | FP activity, negative = inhibition
COc1ccc(CC(C(=O)Nc2ccc(OC)cc2)c2nn[nH]n2)cc1 (centres undefined) |  | inactive: 0.718%
CC(Oc1cccnc1[N+](=O)[O-])C(=O)Nc1ccc(F)cc1 (centres undefined) | inconclusive: 35.5 µM [inhibitor, partial curve, poor fit] | 
CC1CC(C)CN(S(=O)(=O)c2ccc(NC(=O)CN3C(=O)NC(C)(c4ccccc4)C3=O)cc2)C1 (centres undefined) | inconclusive: 11.2 µM [inhibitor, single point] | 
O=C(O)CCCn1c(=S)[nH]c2c(sc3ccc([N+](=O)[O-])cc32)c1=O |  | inactive: 0.0179%
O=[N+]([O-])c1cc(Cl)cc(/C=N/NC(=S)Nc2cc(S(=O)(=O)N3CCOCC3)ccc2Cl)c1O | inconclusive: 11.2 µM [inhibitor, single point] | 
COc1ccc(OCCC(=O)NC2=NCCS2)cc1 |  | inactive: 0.923%
CC(C)C[C@@H](CNCC(=O)[C@H](C)NC(=O)c1[nH]cnc1C(=O)N[C@@H](C)CN)NC(=O)c1nc[nH]c1C(=O)N[C@@H](CC(=O)O)C(=O)O |  | inactive: 12.7%
COc1ccc(-c2nc3ccccc3c(=O)[nH]2)cc1 | inconclusive: 4.47 µM [inhibitor, partial curve, poor fit] | 
O=C1c2cccc3c(O)ccc(c23)C(=O)N1Cc1ccco1 | inconclusive: 31.6 µM [inhibitor, single point] | 
O=C(O)COCC(=O)Nc1ccc2c(c1)ncn2CCc1ccccc1 | inconclusive: 35.5 µM [inhibitor, partial curve, poor fit] | 
CS(=O)(=O)N(CC(=O)N1CCN(Cc2ccccc2)CC1)c1ccc2c(c1)OCCO2 | inconclusive: 20 µM [fluorescent, side channel, partial curve, poor fit] | 
COc1ccc(CNC(=O)c2cccnc2SC)cc1OC | inconclusive: 8.91 µM [inhibitor, partial curve, poor fit] | 
C/C(=N\NC(=O)c1cc(-c2ccc(Cl)s2)[nH]n1)c1ccncc1 | inconclusive: 31.6 µM [inhibitor, single point] | 
CCc1ccccc1S(=O)(=O)Cc1ccc(C(=O)NCCc2ccc(Cl)cc2)o1 |  | inactive: 4.87%
COc1ccc(/C=C2\SC(=O)N(CCC(=O)Nc3ccc(S(=O)(=O)Nc4nccs4)cc3)C2=O)cc1 |  | inactive: -3.49%
N#C/C(=C\c1ccc(N2CCOCC2)o1)c1nc2ccccc2[nH]1 | inconclusive: 25.1 µM [fluorescent, side channel, partial curve] | 
COc1ccc(CN(CCN(C)C)c2ccccn2)cc1 | inconclusive: 3.98 µM [inhibitor, full curve, poor fit] | 
O=C(NC1CCCCC1)N1CCc2ccccc2C1 | inconclusive: 7.08 µM [quencher, side channel, single point] | 
CC[C@]12c3[nH]c4ccccc4c3CCN1C(=O)C(CC(=O)NCc1cccc(C(F)(F)F)c1)C[C@@H]2C(=O)N1CCN(C(=O)C2CC2)CC1 (some centres undefined) | inconclusive: 0.794 µM [inhibitor, full curve, poor fit] | 
CN(C)CCOc1cccc(Br)c1 | inconclusive: 8.91 µM [inhibitor, partial curve, poor fit] | 
CCCC1OC23CCCCC2C(C#N)(C#N)C1(C#N)C(=N)O3 (centres undefined) | inconclusive: 39.8 µM [inhibitor, partial curve, poor fit] | 
Cc1c(-c2ccccc2)oc2c(C(=O)N3CCN(c4ccc([N+](=O)[O-])cc4)CC3)cccc2c1=O | inconclusive: 50.1 µM [inhibitor, single point] | 

2 of the compounds above, in markdown.

| Compound | Potency | FP activity, negative = inhibition |
| --- | --- | --- |
| CC[C@]12c3[nH]c4ccccc4c3CCN1C(=O)C(CC(=O)NCc1cccc(C(F)(F)F)c1)C[C@@H]2C(=O)N1CCN(C(=O)C2CC2)CC1 (some centres undefined) | inconclusive: 0.794 µM [inhibitor, full curve, poor fit] |  |
| CN(C)CCOc1cccc(Br)c1 | inconclusive: 8.91 µM [inhibitor, partial curve, poor fit] |  |

(more compounds)

Compound | Potency | FP activity, negative = inhibition
Cc1ccc(S(=O)(=O)NC2(C(F)(F)F)C(=O)Nc3c2c(=O)[nH]c(=O)n3-c2ccccc2)cc1 (centres undefined) | inconclusive: 35.5 µM [inhibitor, partial curve, poor fit] | 
O=C(Nc1ccc(NS(=O)(=O)c2ccc([N+](=O)[O-])cc2)cc1)c1ccco1 | inconclusive: 28.2 µM [inhibitor, partial curve, poor fit] | 
CC(C)CCNC(=O)c1ccc2c(SCC(=O)O)c3c(nc2c1)CCCC3 | inconclusive: 15.8 µM [inhibitor, partial curve] | 
Cn1c(CNC(=O)CNC(=O)c2ccc(C(C)(C)C)cc2)cc(=O)n(C)c1=O | inconclusive: 56.2 µM [inhibitor, partial curve, poor fit] | 
CCOC(=O)c1c(C)sc(-c2c(-c3cccc(Cl)c3)[nH]c3c2c(=O)n(C)c(=O)n3C)c1O | inconclusive: 15.8 µM [fluorescent, side channel, partial curve, poor fit] | 
O=C(c1ccc(S(=O)(=O)c2cccc(Cl)c2)c([N+](=O)[O-])c1)N1CCN(c2ccccn2)CC1 |  | inactive: -3.96%
Cc1ccc(NC(=O)COC(=O)CCc2ccccc2)cc1S(=O)(=O)N1CCOCC1 | inconclusive: 8.91 µM [inhibitor, partial curve, poor fit] | 
COc1cc(/C=C2/S/C(=N/S(=O)(=O)c3ccccc3)NC2=O)c([N+](=O)[O-])cc1OC | inconclusive: 8.91 µM [inhibitor, partial curve, poor fit] | 
COC(=O)c1sccc1NC(=O)CNC(=O)c1ccccc1 |  | inactive: -4.77%
O=C1N=C(N2CCOCC2)S/C1=C/c1cccs1 |  | inactive: -2.14%
Cc1cccc2nc(-c3cccnc3)c(Nc3ccc(C(C)C)cc3)n12 |  | inactive: -1.69%
O=C(N/N=C/c1c[nH]c2ccccc12)c1ccc(Br)cc1 | inconclusive: 50.1 µM [inhibitor, single point] | 
Cc1nccc2oc(=O)c(NC(=O)c3ccc(Cl)cc3)cc12 | inconclusive: 5.01 µM [inhibitor, single point] | 
COc1ccc2[nH]cc(C(O)CN3CCN(c4ccccc4F)CC3)c2c1 (centres undefined) |  | inactive: -0.878%
O=C(Nc1cccc(Cl)c1)c1c(NC(=O)C(F)(F)F)sc2c1CCCC2 |  | inactive: 6.31%
Cc1ccc(Cl)cc1NC(=O)N1CCN(C)c2ncccc21 | inconclusive: 44.7 µM [fluorescent, side channel, single point] | 
CC1CC(C)CN(CCCSc2ccccc2)C1 (centres undefined) | inconclusive: 63.1 µM [inhibitor, single point] | 
COc1cc(NC(=O)c2csc(-c3ccncc3)n2)cc(C(=O)Nc2cccc(C(F)(F)F)c2)c1 |  | inactive: 6.94%
O=C(COC(=O)c1ccc2ncsc2c1)NCc1cccc(Cl)c1 |  | inactive: 5.26%
CC1=C(C(=O)N2CCc3ccccc32)C2(CCC(C)CC2)OC1=O (centres undefined) |  | inactive: 1.69%

Single values from the list.
Under Potency, COc1ccc(CNC(=O)c2cccnc2SC)cc1OC reads inconclusive: 8.91 µM [inhibitor, partial curve, poor fit]
Under Potency, Cc1nccc2oc(=O)c(NC(=O)c3ccc(Cl)cc3)cc12 reads inconclusive: 5.01 µM [inhibitor, single point]
Under Potency, O=C(N/N=C/c1c[nH]c2ccccc12)c1ccc(Br)cc1 reads inconclusive: 50.1 µM [inhibitor, single point]
